# Test results from the supplement of paper PMC10338343.
# ± gives the standard deviation. Only a part is listed here, and it is no random draw. Many of these values have a large error.
# Tested on: MIWI (PIWIL1) piRISC loaded with L1MC piRNA (30 nt)
# Assay: pre-steady-state target cleavage rate (min^-1); MIWI and MILI are mouse PIWI proteins and EfPiwi is from a freshwater sponge; tags in brackets are library labels; higher = faster piRNA-guided slicing of the target
# Settings: guide: L1MC piRNA 5'p-UAACUAAAUACUAUGCAAGCUGUAGGUCCU; auxiliary factor: none (no GTSF1)
# How it was run: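 Reactions were run for 0–8 or 0–960 min at 33 °C in HEPES–potassium acetate buffer, combining 1 nM active affinity-purified piRISC with one synthetic guide, […] transcribed, DNA-blocked target RNA library and, in some cases, 500 nM GTSF1 partner protein. Sequencing of uncleaved targets followed, with normalisation to depth and to weakly complementary targets. Three trials were pooled, k3 was capped at 0.0001 min^-1, and the pre-steady-state cleavage rate was taken from a burst-and-steady-state fit.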
# 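Also: 1 nM active piRISC with 0.1 nM target library at 33 °C single turnover.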
row,Sequence,pre-steady-state target cleavage rate
1,UCCACCUACAGCUUGCAUAGUAUAUAGAUA,0.00274 ± 0.0036
2,UCCUGGAUGUGCAUGCAUAGUAUAUAGUUA,0.00236 ± 0.004
3,UGGACCUACAGCUUGCAUAGAUAUUUAGUUA,0.00142 ± 0.0057
4,UCCACCUACAGCUUCGAUAGUAUUUAGUAA,0.00105 ± 0.0059
5,UCCUGGAUGUCGAUGCACAGUAUUUAGUUA,0.0018 ± 0.0045
6,UCCACCUACAGCUACGAUAGUAUUUAGAAA,0.000241 ± 0.016
7,UCCUGGAUGUCGAACCAUAGUAUUUACAAA [g5:g15:cont:t1A],0.00018 ± 0.015
8,UCGACCUACAGGAUGCAUAGUAUUUAGAAA,0.00161 ± 0.0031
9,UCGACCUACAGCUUGCAUACAAUUUAGUAA,0.00178 ± 0.0048
10,UCCACCUACAGCUUGCUAGUAUUUAGUUA,0.00172 ± 0.0026
11,UGGACCUACAGCUUGCAAUGUAUUUUCAAA,0.00025 ± 0.0089
12,UCCACCUACAGCUUGCAUAGAAUUUUCAAA,0.000389 ± 0.0081
13,UCCACCUACAGCUACGAUAGUAUUUACAAA,0.00019 ± 0.018
14,AGGACCUACAGCUUCGAUAGUAUUUUCAAA,0.000215 ± 0.017
15,UCGACCUACAGCUUCGUUAGUAUUUAGAAA,0.000706 ± 0.009
16,UGGACCUACAGCUUGCAUAGAUAUUAGUUA,0.0014 ± 0.0046
17,UCGACCUACAGCUUGGUUAGUAUUUAGAAA,0.00161 ± 0.0031
18,UGGACCUACAGCAAGCAUAGUAUUUUCAAA,0.00052 ± 0.0074
19,AGGACCUACAGCUUGCAUAGAUAUUAGUUA,0.00215 ± 0.0044

row,Sequence,pre-steady-state target cleavage rate
1,UCCUGGAUGUCGAACGAUAGCAUUUAGUUA,0.000167 ± 0.031
2,AGGACCUAGUCCUUGCAUAGUAUUUUCAAA,0.00171 ± 0.0028
3,UCCACCUACAGCAUGCAUAGUAUUUACAAA,0.00106 ± 0.0054
4,UCGACCUACAGCUUGGAUAGUAUUUUCAAA,0.00113 ± 0.0037
5,UCCACCUACAGCUUCGUUAGUAUUUAGUUA,0.000442 ± 0.0057
6,UGGACCUACUCCUUGCAUAGUAUUUUCAAA,0.00222 ± 0.0033
7,UCCUGGAACAGCUUGCAAUCAUAAAUCAAA [g14:g23:cont:t1A],0.000215 ± 0.016
8,UCGACCUACAGCUUGCAUAGAUUUUAGUAA,0.00172 ± 0.0035
9,UCCACCUACAGCUUGCUAAGUAUUUAGUAA,0.00132 ± 0.0047
10,UCGACCUACAGCUUGCAUUCAAUUUACAAA,0.000684 ± 0.0091
11,AGGACCUACAGCUUGCAUACAAUUUAGUAA,0.00185 ± 0.0049
12,UCCACCUACAGCUUGCAUACUAUUUUCAAA,0.000932 ± 0.0049
13,UCCACCUACAGCUUGCAUAGUAUAAAGAAA,0.00157 ± 0.0039
14,AGGACCUACAGCAACCAUAGUAUUUAGUAA,0.000974 ± 0.0078
15,UGGUGCUACAGCUUGCAUAGUAUUUACAAA,0.00255 ± 0.0029
16,UCGACCUACAGCUUGCAUAGUAUUAUGAAA,0.00221 ± 0.003
17,AGGACCUACAGCUUGCAUAGUAUUAUGUAA,0.00264 ± 0.0037
18,UCCACCUACAGCUUGUCAUAGUAUUUAGUUA,0.0017 ± 0.0034
19,UCCACCUACAGCUUGCAUACAUUUUAGAAA,0.000272 ± 0.011

# An excerpt from further up, for reference:
row,Sequence,pre-steady-state target cleavage rate
19,AGGACCUACAGCUUGCAUAGAUAUUAGUUA,0.00215 ± 0.0044
1,UCCUGGAUGUCGAACGAUAGCAUUUAGUUA,0.000167 ± 0.031
2,AGGACCUAGUCCUUGCAUAGUAUUUUCAAA,0.00171 ± 0.0028
